Results are given in words; binding and its absence hold for the method and conditions named. Binding seen in cells or lysates may run through a third protein. Some results given as binding are weak or reduced against the parent protein; the word gives no strength. For part of these data: Where a sequence is shown, tags or fusion partners need not be part of it.
Assays:
[1] = molecular target: T1, F-box ubiquitin E3 ligase FBXO21 (human (endogenous in MOLM-13)) (UniProt O94952); test: co-IP; endogenous immunoprecipitation of FBXO21 in MOLM-13 cells, western blot
T1 sequence: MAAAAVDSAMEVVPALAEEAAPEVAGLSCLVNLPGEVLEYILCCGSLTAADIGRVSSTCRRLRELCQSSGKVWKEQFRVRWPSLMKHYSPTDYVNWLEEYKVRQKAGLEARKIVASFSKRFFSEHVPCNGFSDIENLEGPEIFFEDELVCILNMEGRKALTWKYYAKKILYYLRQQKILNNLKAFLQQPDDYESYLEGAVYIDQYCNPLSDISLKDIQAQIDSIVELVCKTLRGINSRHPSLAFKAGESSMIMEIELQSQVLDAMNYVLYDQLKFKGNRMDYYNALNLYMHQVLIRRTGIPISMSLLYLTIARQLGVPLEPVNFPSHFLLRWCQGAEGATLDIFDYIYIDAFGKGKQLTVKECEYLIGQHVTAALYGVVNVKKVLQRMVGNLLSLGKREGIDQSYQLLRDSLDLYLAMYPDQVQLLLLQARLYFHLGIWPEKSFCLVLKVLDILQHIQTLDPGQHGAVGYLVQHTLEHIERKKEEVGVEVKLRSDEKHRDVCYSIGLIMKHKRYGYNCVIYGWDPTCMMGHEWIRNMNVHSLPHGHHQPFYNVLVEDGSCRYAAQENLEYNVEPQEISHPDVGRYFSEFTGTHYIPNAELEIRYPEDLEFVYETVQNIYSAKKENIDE

By UniProt entry, the sequences of proteins in these tests, tags left out.
UniProt P62330: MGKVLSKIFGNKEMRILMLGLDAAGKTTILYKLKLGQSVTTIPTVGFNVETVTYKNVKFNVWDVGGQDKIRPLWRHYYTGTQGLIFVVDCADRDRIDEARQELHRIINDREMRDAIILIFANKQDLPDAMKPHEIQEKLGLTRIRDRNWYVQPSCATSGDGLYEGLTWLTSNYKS
UniProt P27986: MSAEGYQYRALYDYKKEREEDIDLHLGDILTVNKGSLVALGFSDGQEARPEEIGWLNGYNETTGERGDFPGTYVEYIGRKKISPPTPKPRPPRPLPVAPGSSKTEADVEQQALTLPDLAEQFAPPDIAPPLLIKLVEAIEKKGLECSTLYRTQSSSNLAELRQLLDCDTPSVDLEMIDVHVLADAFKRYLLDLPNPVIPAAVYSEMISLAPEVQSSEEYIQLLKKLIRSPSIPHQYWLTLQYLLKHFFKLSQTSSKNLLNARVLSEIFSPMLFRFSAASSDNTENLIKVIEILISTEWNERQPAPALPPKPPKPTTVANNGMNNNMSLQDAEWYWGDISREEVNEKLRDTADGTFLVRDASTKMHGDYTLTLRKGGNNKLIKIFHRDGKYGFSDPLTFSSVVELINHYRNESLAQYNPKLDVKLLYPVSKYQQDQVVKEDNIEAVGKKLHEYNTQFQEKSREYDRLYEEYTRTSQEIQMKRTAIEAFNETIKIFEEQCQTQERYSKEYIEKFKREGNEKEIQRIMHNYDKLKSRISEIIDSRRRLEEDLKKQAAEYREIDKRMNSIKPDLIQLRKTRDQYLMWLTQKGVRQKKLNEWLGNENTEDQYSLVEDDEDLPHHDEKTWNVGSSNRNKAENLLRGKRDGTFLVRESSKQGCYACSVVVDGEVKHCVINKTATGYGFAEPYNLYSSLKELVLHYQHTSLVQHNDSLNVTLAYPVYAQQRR

[2] = molecular target: T2, HA-tagged FBXO21 (UniProt O94952); test: co-IP; HEK293T cells transiently transfected with GFP-tagged p85α and/or HA-tagged FBXO21/ΔFBXO21; immunoprecipitation of GFP or HA, western blot
T2 sequence: T1 sequence

ARF6 (from UniProt P62330 1-175)
binding [1]: no binding

GFP-tagged p85α (from UniProt P27986 1-724)
binding [2]: binds

p85α, regulatory subunit of phosphoinositide 3-kinase (PI3K) (from UniProt P27986 1-724)
binding [1]: binds
